Results deposited as PubChem BioAssay AID1224830 (NIAID, 2016).
Shown is an unselected part of about 18,000 deposited reagents. In the full data, about 2,900 (16%) were called active. 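Calls are made per well; low scores hint the gene aids the LPS response, high scores that it dampens it.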 Repeated entries: four replicate wells of each siRNA pool. No sequences are given here.

- Test: 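Regulators of TLR4 signalling towards TNF-alpha in macrophage-like cells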 (primary screen)
- System: human THP-1 monocytic leukaemia cells, TNF dual-luciferase reporter clone, PMA-differentiated to macrophage-like cells
- Reagents: siRNA pool against human genes, 50 nM
- Timing: LPS for 4 h, given about 3 days after siRNA transfection
- Treatment: bacterial LPS (TLR4 ligand), 10 ng/ml
- Measured: 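TNF firefly reporter luminescence divided by renilla, normalised to the plate median, then turned into a robust z-score for each replicate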
- Reading the numbers: TNF reporter robust z-score: higher = stronger TNF reporter response to LPS
- Active means: 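Each well counts as active if its z-score is over 2.8 or under -1.5; controls are left without a call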

TNF reporter robust z-score,activity call,gene
-0.16,inactive,MRPL21 (mitochondrial ribosomal protein L21)
0.35,inactive,MRPL21 (mitochondrial ribosomal protein L21)
-0.06,inactive,MRPL21 (mitochondrial ribosomal protein L21)
0.17,inactive,MRPL21 (mitochondrial ribosomal protein L21)
0.06,inactive,TUBGCP6 (tubulin gamma complex component 6)
1.72,inactive,TUBGCP6 (tubulin gamma complex component 6)
0.2,inactive,TUBGCP6 (tubulin gamma complex component 6)
-0.4,inactive,TUBGCP6 (tubulin gamma complex component 6)
0.73,inactive,JAK1 (Janus kinase 1)
0.16,inactive,JAK1 (Janus kinase 1)
-0.2,inactive,JAK1 (Janus kinase 1)
1.31,inactive,JAK1 (Janus kinase 1)
-0.28,inactive,FOXI1 (forkhead box I1)
-0.27,inactive,FOXI1 (forkhead box I1)
0.23,inactive,FOXI1 (forkhead box I1)
-0.08,inactive,FOXI1 (forkhead box I1)
0.22,inactive,STRADA (STE20 related adaptor alpha)
0.8,inactive,STRADA (STE20 related adaptor alpha)
-0.9,inactive,STRADA (STE20 related adaptor alpha)
-0.78,inactive,STRADA (STE20 related adaptor alpha)
2.25,inactive,SRSF11 (serine and arginine rich splicing factor 11)
2.21,inactive,SRSF11 (serine and arginine rich splicing factor 11)
1.27,inactive,SRSF11 (serine and arginine rich splicing factor 11)
2.72,inactive,SRSF11 (serine and arginine rich splicing factor 11)
-1.21,inactive,FAM151A (family with sequence similarity 151 member A)
-1.15,inactive,FAM151A (family with sequence similarity 151 member A)
-1.19,inactive,FAM151A (family with sequence similarity 151 member A)
-1.38,inactive,FAM151A (family with sequence similarity 151 member A)
1.61,inactive,TSEN2 (tRNA splicing endonuclease subunit 2)
2.05,inactive,TSEN2 (tRNA splicing endonuclease subunit 2)
1.45,inactive,TSEN2 (tRNA splicing endonuclease subunit 2)
1.95,inactive,TSEN2 (tRNA splicing endonuclease subunit 2)
-0.41,inactive,INSRR (insulin receptor related receptor)
-0.58,inactive,INSRR (insulin receptor related receptor)
-0.3,inactive,INSRR (insulin receptor related receptor)
-0.16,inactive,INSRR (insulin receptor related receptor)
-0.39,inactive,POU3F2 (POU class 3 homeobox 2)
0.15,inactive,POU3F2 (POU class 3 homeobox 2)
0.06,inactive,POU3F2 (POU class 3 homeobox 2)
0.77,inactive,POU3F2 (POU class 3 homeobox 2)
-0.52,inactive,GABRG1 (gamma-aminobutyric acid type A receptor subunit gamma1)
0.49,inactive,GABRG1 (gamma-aminobutyric acid type A receptor subunit gamma1)
-0.11,inactive,GABRG1 (gamma-aminobutyric acid type A receptor subunit gamma1)
-0.16,inactive,GABRG1 (gamma-aminobutyric acid type A receptor subunit gamma1)
0.31,inactive,CORT (cortistatin)
0.33,inactive,CORT (cortistatin)
0.87,inactive,CORT (cortistatin)
-0.55,inactive,CORT (cortistatin)
3.08,active,TMX2 (thioredoxin related transmembrane protein 2)
2.41,inactive,TMX2 (thioredoxin related transmembrane protein 2)
1.04,inactive,TMX2 (thioredoxin related transmembrane protein 2)
1.83,inactive,TMX2 (thioredoxin related transmembrane protein 2)
2.61,inactive,RASGRP1 (RAS guanyl releasing protein 1)
4.98,active,RASGRP1 (RAS guanyl releasing protein 1)
1.73,inactive,RASGRP1 (RAS guanyl releasing protein 1)
1.3,inactive,RASGRP1 (RAS guanyl releasing protein 1)
-0.12,inactive,MXRA5 (matrix remodeling associated 5)
-0.29,inactive,MXRA5 (matrix remodeling associated 5)
0.38,inactive,MXRA5 (matrix remodeling associated 5)
0.75,inactive,MXRA5 (matrix remodeling associated 5)
1.41,inactive,FAM219A (family with sequence similarity 219 member A)
-0.01,inactive,FAM219A (family with sequence similarity 219 member A)
2.4,inactive,FAM219A (family with sequence similarity 219 member A)
0.44,inactive,FAM219A (family with sequence similarity 219 member A)
-0.34,inactive,ATP8B2 (ATPase phospholipid transporting 8B2)
0.26,inactive,ATP8B2 (ATPase phospholipid transporting 8B2)
0.12,inactive,ATP8B2 (ATPase phospholipid transporting 8B2)
-0.57,inactive,ATP8B2 (ATPase phospholipid transporting 8B2)
-0.58,inactive,C10orf55 (chromosome 10 putative open reading frame 55)
-1.16,inactive,C10orf55 (chromosome 10 putative open reading frame 55)
-1.09,inactive,C10orf55 (chromosome 10 putative open reading frame 55)
0.25,inactive,C10orf55 (chromosome 10 putative open reading frame 55)
-0.14,inactive,UNC13D (unc-13 homolog D)
0.3,inactive,UNC13D (unc-13 homolog D)
0.58,inactive,UNC13D (unc-13 homolog D)
-0.2,inactive,UNC13D (unc-13 homolog D)
0.21,inactive,FHIT (fragile histidine triad diadenosine triphosphatase)
-0.09,inactive,FHIT (fragile histidine triad diadenosine triphosphatase)
-0.56,inactive,FHIT (fragile histidine triad diadenosine triphosphatase)
-0.42,inactive,FHIT (fragile histidine triad diadenosine triphosphatase)
-1.07,inactive,MAPK10 (mitogen-activated protein kinase 10)
0.81,inactive,MAPK10 (mitogen-activated protein kinase 10)
0.73,inactive,MAPK10 (mitogen-activated protein kinase 10)
0.19,inactive,MAPK10 (mitogen-activated protein kinase 10)
-0.94,inactive,FANCG (FA complementation group G)
1.99,inactive,FANCG (FA complementation group G)
-1.97,active,FANCG (FA complementation group G)
-1.4,inactive,FANCG (FA complementation group G)
3.56,active,FCRL5 (Fc receptor like 5)
-0.48,inactive,FCRL5 (Fc receptor like 5)
-1.17,inactive,FCRL5 (Fc receptor like 5)
0.96,inactive,FCRL5 (Fc receptor like 5)
-0.84,inactive,ZBTB35 (zinc finger and BTB domain containing 35)
0.61,inactive,ZBTB35 (zinc finger and BTB domain containing 35)
-0.2,inactive,ZBTB35 (zinc finger and BTB domain containing 35)
0.27,inactive,ZBTB35 (zinc finger and BTB domain containing 35)
-0.22,inactive,OSGEPL1 (O-sialoglycoprotein endopeptidase like 1)
1.15,inactive,OSGEPL1 (O-sialoglycoprotein endopeptidase like 1)
0.47,inactive,OSGEPL1 (O-sialoglycoprotein endopeptidase like 1)
-0.69,inactive,OSGEPL1 (O-sialoglycoprotein endopeptidase like 1)
1.31,inactive,EED (embryonic ectoderm development)
0.97,inactive,EED (embryonic ectoderm development)
1.17,inactive,EED (embryonic ectoderm development)
1.18,inactive,EED (embryonic ectoderm development)
0.93,inactive,WNT5B (Wnt family member 5B)
4.54,active,WNT5B (Wnt family member 5B)
1.56,inactive,WNT5B (Wnt family member 5B)
1.13,inactive,WNT5B (Wnt family member 5B)
-0.19,inactive,"TARS2 (threonyl-tRNA synthetase 2, mitochondrial)"
0.37,inactive,"TARS2 (threonyl-tRNA synthetase 2, mitochondrial)"
-0.29,inactive,"TARS2 (threonyl-tRNA synthetase 2, mitochondrial)"
0.94,inactive,"TARS2 (threonyl-tRNA synthetase 2, mitochondrial)"

Laid out differently: 10 of the entries above.
{"gene":"JAK1 (Janus kinase 1)","TNF reporter robust z-score":-0.2,"activity call":"inactive"}
{"gene":"JAK1 (Janus kinase 1)","TNF reporter robust z-score":1.31,"activity call":"inactive"}
{"gene":"FOXI1 (forkhead box I1)","TNF reporter robust z-score":-0.28,"activity call":"inactive"}
{"gene":"FOXI1 (forkhead box I1)","TNF reporter robust z-score":-0.27,"activity call":"inactive"}
{"gene":"FOXI1 (forkhead box I1)","TNF reporter robust z-score":0.23,"activity call":"inactive"}
{"gene":"FOXI1 (forkhead box I1)","TNF reporter robust z-score":-0.08,"activity call":"inactive"}
{"gene":"STRADA (STE20 related adaptor alpha)","TNF reporter robust z-score":0.22,"activity call":"inactive"}
{"gene":"STRADA (STE20 related adaptor alpha)","TNF reporter robust z-score":0.8,"activity call":"inactive"}
{"gene":"STRADA (STE20 related adaptor alpha)","TNF reporter robust z-score":-0.9,"activity call":"inactive"}
{"gene":"STRADA (STE20 related adaptor alpha)","TNF reporter robust z-score":-0.78,"activity call":"inactive"}
